Test results reported in paper PMC6436534 (Chemistry (Weinheim an der Bergstrasse, Germany), 2019).
In brackets after ≈: the same amount, converted by molar mass.

Key:
[1] = tested on: breast cancer (MCF7) cell line; assay: Activity against breast cancer cell line; assay type: cell-based
[2] = tested on: melanoma (MM96L) cell line; assay: Activity against melanoma cell line; assay type: cell-based

Which IC50 [1] does the source give for `O=C(CCCCCCC(=O)Nc1ccccc1)NO` [compound 11, suberanilohydroxamic acid, reference compound] here?
The IC50 was 0.017 ± 0.001 µg/mL (≈ 0.0643 µM).

What about the IC50 [2] of the same compound?
Its IC50 is 0.026 ± 0.005 µg/mL (≈ 0.0984 µM).
